This test has as its target EBNA1 truncation mutant 452–641 (Epstein-Barr virus) (UniProt P03211). Description: native gel or EMSA; EBNA1 fragment titrated, preincubated with 10 pmols USP7 or USP7-NTD 10 min at RT before 10 fmoles 32P-labelled DS site 1 DNA (or EBNA1-DNA preformed, then rising USP7, Figure 2C); 20 mM Tris pH 7.5, 200 mM NaCl, 1 µg salmon sperm DNA, 20 µl; 10% polyacrylamide gel; read-out: supershift of the EBNA1-DNA complex; both purified.

The chains behind the UniProt entries cited, without tags or fusion partners.
UniProt Q93009: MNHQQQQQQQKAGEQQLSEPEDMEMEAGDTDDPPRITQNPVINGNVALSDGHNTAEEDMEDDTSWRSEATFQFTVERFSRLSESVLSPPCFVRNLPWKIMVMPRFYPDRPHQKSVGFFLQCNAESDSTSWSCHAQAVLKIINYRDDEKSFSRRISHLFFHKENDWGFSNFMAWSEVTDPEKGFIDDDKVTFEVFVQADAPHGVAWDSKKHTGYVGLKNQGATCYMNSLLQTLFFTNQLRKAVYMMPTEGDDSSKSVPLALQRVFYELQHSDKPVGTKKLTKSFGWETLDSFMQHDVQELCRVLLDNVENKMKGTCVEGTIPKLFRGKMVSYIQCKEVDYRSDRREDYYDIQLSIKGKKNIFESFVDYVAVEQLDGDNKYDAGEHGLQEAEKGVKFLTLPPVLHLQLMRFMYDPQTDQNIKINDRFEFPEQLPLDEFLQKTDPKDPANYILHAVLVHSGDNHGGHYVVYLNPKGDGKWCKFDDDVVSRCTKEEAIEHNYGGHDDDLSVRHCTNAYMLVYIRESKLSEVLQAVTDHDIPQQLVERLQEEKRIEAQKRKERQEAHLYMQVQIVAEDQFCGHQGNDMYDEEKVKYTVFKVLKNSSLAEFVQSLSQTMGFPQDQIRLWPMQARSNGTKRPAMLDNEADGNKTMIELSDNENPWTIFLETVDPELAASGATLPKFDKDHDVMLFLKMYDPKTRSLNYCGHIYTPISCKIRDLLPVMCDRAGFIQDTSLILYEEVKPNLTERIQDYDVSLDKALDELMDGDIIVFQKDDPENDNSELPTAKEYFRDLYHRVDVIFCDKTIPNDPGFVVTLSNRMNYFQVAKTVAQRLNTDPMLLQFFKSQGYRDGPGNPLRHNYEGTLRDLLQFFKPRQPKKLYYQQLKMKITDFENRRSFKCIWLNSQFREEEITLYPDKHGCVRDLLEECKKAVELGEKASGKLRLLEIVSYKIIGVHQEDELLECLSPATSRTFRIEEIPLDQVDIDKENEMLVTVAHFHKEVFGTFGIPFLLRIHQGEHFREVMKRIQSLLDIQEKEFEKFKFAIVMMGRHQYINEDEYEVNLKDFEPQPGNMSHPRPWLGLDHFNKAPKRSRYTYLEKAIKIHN

These are yes or no findings as the source states them, for the method shown.

For “USP7 (ubiquitin specific protease USP7), full length (from UniProt Q93009 1-1102) (enzyme)”, the binding result is “no binding (tested: 10 pmols of USP7)”.

(Values after article PMC2757719.)
